± gives the standard deviation of the averaged measurements. Most entries show no effect beyond the scatter of the controls.
Experiments:
Test in all cases: level (log10 ratio to DMSO vehicle control); higher = higher biomarker level / cell amount than vehicle control
[1] = compound: CCN(CCO)S(=O)(=O)C(F)(F)C(F)(F)C(F)(F)C(F)(F)C(F)(F)C(F)(F)C(F)(F)C(F)(F)F [N-Ethyl-N-(2-hydroxyethyl)perfluorooctanesulfonamide]; conditions: in DMSO
Method: (§1)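 BioMAP Diversity Plus panel of 12 human primary cell co-culture systems (3C, 4H, LPS, SAg, BT, BF4T, BE3C, CASM3C, HDF3CGF, KF3CT, MyoF, Mphg). Compounds were added 1 h before stimulation and left for 24 h (MyoF 48 h; BT 72 h for soluble read-outs or 6 d for IgG). Biomarkers were read by ELISA, cytotoxicity by SRB, PBMC viability and proliferation by Alamar Blue. Each well value was divided by the mean of 8 DMSO control wells on the same plate and log10 transformed; duplicate blinded samples were tested at 4 concentrations.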

[2] = compound: O=C(O)C(F)(F)C(F)(F)C(F)(F)OC(F)(F)F [Perfluoro(4-methoxybutanoic) acid]; conditions: 2200 nM; in DMSO
Method: as §1

[3] = compound: O=C(O)C(F)(F)C(F)(F)C(F)(F)C(F)(F)C(F)(F)C(F)(F)C(F)(F)C(F)(F)C(F)(F)C(F)F [11-H-Perfluoroundecanoic acid]; conditions: 2200 nM; in DMSO
Method: as §1

Heptafluorobutyramide = compound: NC(=O)C(F)(F)C(F)(F)C(F)(F)F [Heptafluorobutyramide]; conditions: 2200 nM; in DMSO
Method: as §1

[4] = compound: CC(C)(C)C(=O)CC(=O)C(F)(F)C(F)(F)C(F)(F)F [(Heptafluorobutanoyl)pivaloylmethane]; conditions: 2200 nM; in DMSO
Method: as §1

[5] = compound: FC(F)(F)C(F)(F)C(F)(F)C(F)(F)C(F)(F)C(F)(F)CC1CO1 [3-(Perfluorohexyl)-1,2-epoxypropane]; conditions: 2200 nM; in DMSO
Method: as §1

[6] = compound: OCCC(F)(F)C(F)(F)C(F)(F)C(F)(F)C(F)(F)C(F)(F)F [6:2 Fluorotelomer alcohol]; conditions: 2200 nM; in DMSO
Method: as §1

[7] = compound: NCC(F)(F)C(F)(F)C(F)(F)C(F)(F)C(F)(F)C(F)(F)C(F)(F)F [1H,1H-Perfluorooctylamine]; conditions: 2200 nM; in DMSO
Method: as §1

Octafluoroadipic acid = compound: O=C(O)C(F)(F)C(F)(F)C(F)(F)C(F)(F)C(=O)O [Octafluoroadipic acid]; conditions: 2200 nM; in DMSO
Method: as §1

[8] = compound: O=S(=O)(O)CCC(F)(F)C(F)(F)C(F)(F)C(F)(F)C(F)(F)C(F)(F)C(F)(F)C(F)(F)F [8:2 Fluorotelomer sulfonic acid]; conditions: in DMSO
Method: as §1

1-(Perfluorohexyl)octane = compound: CCCCCCCCC(F)(F)C(F)(F)C(F)(F)C(F)(F)C(F)(F)C(F)(F)F [1-(Perfluorohexyl)octane]; conditions: in DMSO
Method: as §1

[9] = compound: Cc1ccc(S(=O)(=O)OCC(F)(F)C(F)(F)C(F)(F)C(F)(F)C(F)(F)C(F)F)cc1 [1H,1H,7H-Perfluoroheptyl 4-methylbenzenesulfonate]; conditions: 2200 nM; in DMSO
Method: as §1

Perfluoroheptanoic acid = compound: O=C(O)C(F)(F)C(F)(F)C(F)(F)C(F)(F)C(F)(F)C(F)(F)F [Perfluoroheptanoic acid]; conditions: in DMSO
Method: as §1

Perfluoropentanoic acid = compound: O=C(O)C(F)(F)C(F)(F)C(F)(F)C(F)(F)F [Perfluoropentanoic acid]; conditions: in DMSO
Method: as §1

[10] = compound: CN(C(=O)C(F)(F)C(F)(F)C(F)(F)F)[Si](C)(C)C [N-Methyl-N-trimethylsilylheptafluorobutyramide]; conditions: 2200 nM; in DMSO
Method: as §1

1H,1H-Heptafluorobutanol = compound: OCC(F)(F)C(F)(F)C(F)(F)F [1H,1H-Heptafluorobutanol]; conditions: 2200 nM; in DMSO
Method: as §1

Question: For BF4T:Keratin 8/18, which “level (log10)” value ([1]; 2200 nM) is on record?
Answer: 0.0245 ± 0.026

Question: And the “level (log10)” value ([1]; 6700 nM)?
Answer: -0.002 ± 0.0014

Question: What about the “level (log10)” value ([1]; 20000 nM) of the same test system?
Answer: -0.0005 ± 0.0021

Question: And the “level (log10)” value [2]?
Answer: 0.0175 ± 0.028

Question: What about the “level (log10)” value [3] of the same test system?
Answer: -0.031 ± 0.016

Question: What about the “level (log10)” value (Heptafluorobutyramide) of the same test system?
Answer: 0.012 ± 0.028

Question: What about the “level (log10)” value [4] of the same test system?
Answer: 0.015 ± 0.042

Question: And the “level (log10)” value [5]?
Answer: 0.016 ± 0.0042

Question: And the “level (log10)” value [6]?
Answer: 0.008 ± 0.014

Question: And the “level (log10)” value [7]?
Answer: 0.0015 ± 0.053

Question: What about the “level (log10)” value (Octafluoroadipic acid) of the same test system?
Answer: 0.0125 ± 0.04

Question: And the “level (log10)” value ([8]; 2200 nM)?
Answer: 0.0085 ± 0.042

Question: What about the “level (log10)” value ([8]; 6700 nM) of the same test system?
Answer: 0.004 ± 0.0099

Question: And the “level (log10)” value ([8]; 20000 nM)?
Answer: -0.0005 ± 0.018

Question: And the “level (log10)” value ([8]; 60000 nM)?
Answer: 0.0245 ± 0.0078

Question: And the “level (log10)” value (1-(Perfluorohexyl)octane; 740 nM)?
Answer: 0.013

Question: What about the “level (log10)” value (1-(Perfluorohexyl)octane; 2200 nM) of the same test system?
Answer: 0.006 ± 0.0028

Question: What about the “level (log10)” value [9] of the same test system?
Answer: 0.009 ± 0.025

Question: What about the “level (log10)” value (Perfluoroheptanoic acid; 2200 nM) of the same test system?
Answer: 0.014 ± 0.013

Question: And the “level (log10)” value (Perfluoroheptanoic acid; 6700 nM)?
Answer: -0.0285 ± 0.0092

Question: What about the “level (log10)” value (Perfluoroheptanoic acid; 20000 nM) of the same test system?
Answer: -0.018 ± 0.0057

Question: What about the “level (log10)” value (Perfluoroheptanoic acid; 60000 nM) of the same test system?
Answer: 0.0045 ± 0.026

Question: And the “level (log10)” value (Perfluoropentanoic acid; 2200 nM)?
Answer: 0.0235 ± 0.015

Question: And the “level (log10)” value (Perfluoropentanoic acid; 6700 nM)?
Answer: 0.0055 ± 0.0064

Question: And the “level (log10)” value (Perfluoropentanoic acid; 20000 nM)?
Answer: -0.002 ± 0.0085

Question: And the “level (log10)” value (Perfluoropentanoic acid; 60000 nM)?
Answer: 0.0055 ± 0.03

Question: And the “level (log10)” value [10]?
Answer: -0.01 ± 0.051

Question: And the “level (log10)” value (1H,1H-Heptafluorobutanol)?
Answer: -0.0135 ± 0.064

Question: Which “level (log10)” value ([1]; 2200 nM) does the source give for BF4T:MMP-1 here?
Answer: 0.016 ± 0.016

Question: What about the “level (log10)” value ([1]; 6700 nM) of the same test system?
Answer: 0.015

Question: And the “level (log10)” value ([1]; 20000 nM)?
Answer: 0.0095 ± 0.0078

Question: And the “level (log10)” value [2]?
Answer: 0.012 ± 0.033

Question: What about the “level (log10)” value [3] of the same test system?
Answer: -0.021 ± 0.055

Question: What about the “level (log10)” value (Heptafluorobutyramide) of the same test system?
Answer: 0.01 ± 0.028

Question: And the “level (log10)” value [4]?
Answer: 0.007 ± 0.016

Question: And the “level (log10)” value [5]?
Answer: 0.0115 ± 0.0064

Question: What about the “level (log10)” value [6] of the same test system?
Answer: 0.012 ± 0.0099

Question: What about the “level (log10)” value [7] of the same test system?
Answer: 0.0005 ± 0.03

Question: What about the “level (log10)” value (Octafluoroadipic acid) of the same test system?
Answer: 0.0135 ± 0.0021

Question: And the “level (log10)” value ([8]; 2200 nM)?
Answer: 0.011 ± 0.018

Question: And the “level (log10)” value ([8]; 6700 nM)?
Answer: 0.005 ± 0.0085

Question: What about the “level (log10)” value ([8]; 20000 nM) of the same test system?
Answer: -0.002 ± 0.0071

Question: And the “level (log10)” value ([8]; 60000 nM)?
Answer: 0.0035 ± 0.0021

Question: What about the “level (log10)” value (1-(Perfluorohexyl)octane; 740 nM) of the same test system?
Answer: -0.001 ± 0.045

Question: And the “level (log10)” value (1-(Perfluorohexyl)octane; 2200 nM)?
Answer: -0.0015 ± 0.049

Question: And the “level (log10)” value [9]?
Answer: 0.0065 ± 0.043

Question: And the “level (log10)” value (Perfluoroheptanoic acid; 2200 nM)?
Answer: 0.008

Question: And the “level (log10)” value (Perfluoroheptanoic acid; 6700 nM)?
Answer: -0.0005 ± 0.028

Question: And the “level (log10)” value (Perfluoroheptanoic acid; 20000 nM)?
Answer: 0.001 ± 0.03

Question: And the “level (log10)” value (Perfluoroheptanoic acid; 60000 nM)?
Answer: 0.039 ± 0.051

Question: What about the “level (log10)” value (Perfluoropentanoic acid; 2200 nM) of the same test system?
Answer: 0.014 ± 0.023

Question: What about the “level (log10)” value (Perfluoropentanoic acid; 6700 nM) of the same test system?
Answer: 0 ± 0.014

Question: What about the “level (log10)” value (Perfluoropentanoic acid; 20000 nM) of the same test system?
Answer: -0.005 ± 0.0057

Question: And the “level (log10)” value (Perfluoropentanoic acid; 60000 nM)?
Answer: 0.0085 ± 0.0092

Question: And the “level (log10)” value [10]?
Answer: 0.0095 ± 0.052

Question: And the “level (log10)” value (1H,1H-Heptafluorobutanol)?
Answer: 0.0045 ± 0.0035
